Measured values published in patent US5744499A, “Apoptosis-modulating factors influencing the intracellular concentration of methional/malondialdehyde” (Centre International de Recherches Dermatologiques Galderma, priority 1994, dated 1998).
For at least one compound, name, drawing or mass did not settle the structure.

Legend:
HeLa cells = assay: 2-oxobutyrate reversal of MTOB-induced growth inhibition of HeLa cells (methionine-free medium); format: cell-based; conditions: 2-oxobutyrate 10 mM-40 mM in presence of 2 mM MTOB
Method: HeLa cells (0.5×10^6 per Petri dish) were cultured in 3 ml of a minimum essential Eagle medium not containing methionine and containing 10% by weight dialyzed fetal calf serum. After four hours, 2-oxobutyrate (10 mM-40 mM) in the presence of 2 mM 4-methylthio-2-oxobutanoic acid (MTOB) were added. After three days at 37° C., the cells were washed twice in a buffered, phosphatized saline medium having a pH of 7.5 (PBS medium) and collected in the same type of buffer. Cell growth was measured in the same manner as in the preceding example.
Beginning at a level of 10 mM 2-oxobutyrate, inhibition decreased 2-3 times.

[1] = tested on: branched-chain oxoacid dehydogenase complex (BCOADC); conditions: substrate of BCOADC; cited from earlier work

## CCC(=O)C(=O)O [2-oxobutyrate]
HeLa cells
  effect on MTOB-caused inhibition of growth: had the ability to eliminate this inhibition of growth
[1]
  Km: 18 µM
